By IC50 is commonly meant the point on the concentration scale where inhibition reaches its midpoint.

Amino acid sequences for entries named in this document (tags omitted). Residues count along the entry.
UniProt P07949, 29-1114 G810R limits assumed: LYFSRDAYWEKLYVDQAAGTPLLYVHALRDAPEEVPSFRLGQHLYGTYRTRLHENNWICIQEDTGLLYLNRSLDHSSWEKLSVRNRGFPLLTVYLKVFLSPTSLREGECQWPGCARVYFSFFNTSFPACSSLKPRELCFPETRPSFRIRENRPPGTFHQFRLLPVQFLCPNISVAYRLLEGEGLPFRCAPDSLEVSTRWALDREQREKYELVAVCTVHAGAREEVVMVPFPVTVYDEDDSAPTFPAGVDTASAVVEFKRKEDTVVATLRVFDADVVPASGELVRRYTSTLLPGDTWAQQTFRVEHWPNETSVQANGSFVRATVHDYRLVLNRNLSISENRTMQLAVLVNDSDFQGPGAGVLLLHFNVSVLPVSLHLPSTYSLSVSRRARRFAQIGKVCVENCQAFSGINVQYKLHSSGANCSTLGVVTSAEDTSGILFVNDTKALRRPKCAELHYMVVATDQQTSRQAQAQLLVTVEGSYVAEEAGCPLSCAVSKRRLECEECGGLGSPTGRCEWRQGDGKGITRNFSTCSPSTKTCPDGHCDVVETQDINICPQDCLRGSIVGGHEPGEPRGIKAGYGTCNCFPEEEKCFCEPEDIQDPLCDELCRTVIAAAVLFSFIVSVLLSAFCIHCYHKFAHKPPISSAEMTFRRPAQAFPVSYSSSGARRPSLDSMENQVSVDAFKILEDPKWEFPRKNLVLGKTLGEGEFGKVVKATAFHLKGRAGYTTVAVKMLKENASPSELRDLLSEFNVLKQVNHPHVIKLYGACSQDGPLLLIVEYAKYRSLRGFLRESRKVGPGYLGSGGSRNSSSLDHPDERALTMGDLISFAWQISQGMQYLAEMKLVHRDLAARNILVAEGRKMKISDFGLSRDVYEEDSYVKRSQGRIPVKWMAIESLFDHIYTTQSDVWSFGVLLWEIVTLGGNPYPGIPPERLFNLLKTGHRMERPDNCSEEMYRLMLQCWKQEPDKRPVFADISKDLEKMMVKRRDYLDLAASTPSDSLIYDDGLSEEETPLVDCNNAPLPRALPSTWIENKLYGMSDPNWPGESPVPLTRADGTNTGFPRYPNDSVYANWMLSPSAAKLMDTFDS

The match of structure and compound is tentative.

This assay addresses RET G810R (Homo sapiens (Human), UniProt P07949, G810R). Briefly: HTRF KinEASE-TK kinase activity test, RET G810R. To be noted: read-out: RET G810R IC50; HTRF kinase assay. Background: TR-FRET usually uses a lanthanide donor and a delayed reading to cut background.

As to `CCOc1cc(-c2ccc(N3CC4CC(C3)N4Cc3ccc(S(C)(=O)=O)cc3)nc2)c2c3cn[nH]c3nn2c1`, the half-inhibitory concentration (IC50) worked out at 4.7 nM.

(Values after patent publication US20240174674A1, “NITROGEN-CONTAINING POLYCYCLIC FUSED RING COMPOUND, PHARMACEUTICAL COMPOSITION THEREOF, PREPARATION METHOD THEREFOR, AND USE THEREOF” (APPLIED PHARMACEUTICAL SCIENCE, INC., priority 2021, published 2024).)
